SMILES strings stand for the structures. The match of structure and compound is tentative.

Chains of the proteins cited; added tags and fusions are not shown.
UniProt P52333, whole entry: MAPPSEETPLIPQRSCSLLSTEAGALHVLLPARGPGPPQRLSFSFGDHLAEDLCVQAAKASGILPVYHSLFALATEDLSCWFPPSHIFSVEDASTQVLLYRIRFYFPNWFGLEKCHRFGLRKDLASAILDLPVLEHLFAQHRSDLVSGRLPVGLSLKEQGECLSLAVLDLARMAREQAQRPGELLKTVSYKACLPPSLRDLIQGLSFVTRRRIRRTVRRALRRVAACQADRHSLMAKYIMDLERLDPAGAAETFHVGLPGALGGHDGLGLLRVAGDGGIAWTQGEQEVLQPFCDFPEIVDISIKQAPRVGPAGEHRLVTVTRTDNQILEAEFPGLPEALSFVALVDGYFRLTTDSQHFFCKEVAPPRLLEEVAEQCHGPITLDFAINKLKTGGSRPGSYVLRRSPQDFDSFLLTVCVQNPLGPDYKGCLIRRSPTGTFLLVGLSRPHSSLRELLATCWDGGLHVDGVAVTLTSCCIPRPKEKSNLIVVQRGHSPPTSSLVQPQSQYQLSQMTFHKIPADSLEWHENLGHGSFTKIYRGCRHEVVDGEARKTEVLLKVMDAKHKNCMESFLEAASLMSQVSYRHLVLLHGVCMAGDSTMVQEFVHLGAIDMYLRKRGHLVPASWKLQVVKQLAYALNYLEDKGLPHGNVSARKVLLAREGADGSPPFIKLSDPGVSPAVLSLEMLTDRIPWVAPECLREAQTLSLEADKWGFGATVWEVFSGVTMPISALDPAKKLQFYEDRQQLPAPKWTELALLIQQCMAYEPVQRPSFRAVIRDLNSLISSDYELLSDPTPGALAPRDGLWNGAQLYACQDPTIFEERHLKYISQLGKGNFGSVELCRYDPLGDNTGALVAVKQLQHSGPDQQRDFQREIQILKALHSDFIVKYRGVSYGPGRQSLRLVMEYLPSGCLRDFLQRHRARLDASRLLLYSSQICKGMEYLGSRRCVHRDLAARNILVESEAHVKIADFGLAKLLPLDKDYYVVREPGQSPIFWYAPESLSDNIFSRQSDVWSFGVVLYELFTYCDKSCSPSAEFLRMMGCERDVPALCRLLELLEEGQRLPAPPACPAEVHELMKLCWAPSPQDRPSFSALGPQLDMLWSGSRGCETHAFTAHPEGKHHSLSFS
UniProt P23458, whole entry: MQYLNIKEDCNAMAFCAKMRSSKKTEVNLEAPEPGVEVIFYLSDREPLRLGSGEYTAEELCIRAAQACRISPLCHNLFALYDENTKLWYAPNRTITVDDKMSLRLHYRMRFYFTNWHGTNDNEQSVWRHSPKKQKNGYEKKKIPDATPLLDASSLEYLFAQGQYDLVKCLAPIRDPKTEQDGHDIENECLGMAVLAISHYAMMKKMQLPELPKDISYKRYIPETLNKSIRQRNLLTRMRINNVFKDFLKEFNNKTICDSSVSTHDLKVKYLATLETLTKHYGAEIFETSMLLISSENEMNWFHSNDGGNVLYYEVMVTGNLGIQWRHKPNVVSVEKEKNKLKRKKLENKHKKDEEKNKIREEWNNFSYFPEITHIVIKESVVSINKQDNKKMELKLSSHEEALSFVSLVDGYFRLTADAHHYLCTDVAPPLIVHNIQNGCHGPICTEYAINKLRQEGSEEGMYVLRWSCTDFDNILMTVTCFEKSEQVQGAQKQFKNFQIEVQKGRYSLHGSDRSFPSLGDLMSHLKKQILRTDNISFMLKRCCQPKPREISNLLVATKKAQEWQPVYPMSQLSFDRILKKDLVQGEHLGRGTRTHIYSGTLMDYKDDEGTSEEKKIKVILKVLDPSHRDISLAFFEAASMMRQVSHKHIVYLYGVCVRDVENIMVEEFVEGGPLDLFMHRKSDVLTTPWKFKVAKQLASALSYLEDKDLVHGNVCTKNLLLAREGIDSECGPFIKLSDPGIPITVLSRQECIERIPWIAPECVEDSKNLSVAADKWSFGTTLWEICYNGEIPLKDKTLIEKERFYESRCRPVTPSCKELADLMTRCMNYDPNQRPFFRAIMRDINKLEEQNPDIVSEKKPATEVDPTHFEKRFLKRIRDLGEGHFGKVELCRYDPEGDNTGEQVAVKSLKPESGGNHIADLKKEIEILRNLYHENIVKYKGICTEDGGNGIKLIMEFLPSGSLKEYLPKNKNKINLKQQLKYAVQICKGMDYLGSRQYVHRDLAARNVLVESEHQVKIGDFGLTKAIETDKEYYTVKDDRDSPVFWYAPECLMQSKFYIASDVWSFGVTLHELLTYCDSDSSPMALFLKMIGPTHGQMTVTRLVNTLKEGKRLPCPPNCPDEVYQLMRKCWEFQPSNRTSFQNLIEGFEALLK

One may read the IC50 as the concentration that gives 50% inhibition.

One assay addresses JAK3 enzyme (Homo sapiens, UniProt P52333). The experiment in a line: JAK3 Kinase Assay Protocol (Filter). The settings on record: read-out: LLE_JAK3_FB (IC50), 33P γ-ATP, 8 μM ATP, CSKtide substrate.
In a further assay the target is GST-JAK3 enzyme (Homo sapiens, UniProt P52333). The experiment in a line: JAK3 Kinase Assay Protocol (Caliper). The settings on record: read-out: LLE_JAK3_CAL (IC50); Caliper LabChip assay, ATP 8 μM, fluoresceinated peptide.
Another assay deals with GST-JAK1 enzyme (Homo sapiens, UniProt P23458). The experiment in a line: JAK1 Kinase Assay Protocol. The following applies: read-out: LLE_JAK1 (IC50); Caliper LabChip assay, ATP 100 μM, fluoresceinated peptide. The method, then: The assay reactions were performed in U-bottom 384-well plates. The final assay volume was 30 μl prepared from 15 μl additions of enzyme and substrates (fluoresceinated peptide and ATP) and test compounds in assay buffer (20 mM HEPES pH 7.4, 10 mM MgCl2, 25 mM beta-glycerol phosphate, 0.015% Brij35 and 4 mM DTT). The reaction was initiated by the combination of GST-JAK1 enzyme with substrates and test compounds. The reactions were incubated at room temperature for 3 hours and terminated by adding 60 μl of 35 mM EDTA to each sample. Each reaction mixture was analyzed on the Caliper LabChip 3000 (Caliper, Hopkinton, Mass.) by electrophoretic separation of the fluorescent substrate and phosphorylated product. Inhibition data were calculated by comparison with no enzyme control reactions for 100% inhibition, and vehicle-only treated reactions for 0% inhibition. The final concentration of reagents in the assays was: ATP, 100 μM; fluoresceinated peptide, 1.5 μM; GST-JAK1, 12.5 nM; and DMSO, 1.6%. Dose response curves were generated to determine the concentration required inhibiting 50% of kinase activity (IC50). Compounds were dissolved at 10 mM in dimethylsulfoxide (DMSO) and evaluated at eleven concentrations. IC50 values were derived by non-linear regression analysis.

For the compound `CC1(C)[C@H](Nc2c(C(N)=O)cnn3cc(-c4ccc(N5CCOCC5=O)cc4)cc23)CC[C@]1(C)N`, the IC50 stood at 1.2 nM at JAK3 enzyme, 1.1 nM on GST-JAK3 enzyme and 0.7 nM on GST-JAK1 enzyme.

Source of the values: patent publication US9221826B2, “Pyrrolopyridazine JAK3 inhibitors and their use for the treatment of inflammatory and autoimmune diseases” (Bristol-Myers Squibb Company, priority 2011, dated 2015).
